Reference: publication PMC3943411, “Modular assembly of designer PUF proteins for specific post-transcriptional regulation of endogenous RNA”

Molecular target: T1, PUF (S8) S863N,N899S,Q903E,C935N,N971C,H972Y,C1007N,N1043C,S1079N,E1083Q,N1122C (human) (UniProt Q14671)
T1 sequence (looked up, limits assumed): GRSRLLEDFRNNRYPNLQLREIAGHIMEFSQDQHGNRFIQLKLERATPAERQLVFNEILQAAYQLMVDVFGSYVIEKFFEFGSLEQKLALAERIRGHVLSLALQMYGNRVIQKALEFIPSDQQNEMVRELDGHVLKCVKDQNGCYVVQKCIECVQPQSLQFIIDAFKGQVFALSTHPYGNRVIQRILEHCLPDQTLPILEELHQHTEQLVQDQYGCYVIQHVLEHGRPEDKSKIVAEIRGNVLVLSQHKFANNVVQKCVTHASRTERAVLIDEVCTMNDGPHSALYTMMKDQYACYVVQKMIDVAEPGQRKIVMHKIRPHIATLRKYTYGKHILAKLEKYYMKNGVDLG
Assay: fluorescence polarization/anisotropy
Conditions: noncognate, 1 nM RNA, KD not determined, little binding at 300 nM protein; 20 mM Tris-HCl pH 7.5, 0.5 mM EDTA, 50 mM KCl, 0.1 mg/ml BSA; temperature not stated; protein corrected for active fraction (about 30%); KD mean ± SD, n = 3; recombinant protein; protein details: His-tag (pET28a); label: 5' 6-carboxyfluorescein

CCAGAAUUGUAUAUAUUCG [WT RNA (UGUAUAUA)]
binding result: binds more weakly

Weaker means in comparison with the reference protein, sequence or condition of that experiment. Where a protein sequence is shown, tags need not be part of it.
